Assay results: patent US12115167B2 (Woolsey Pharmaceuticals, Inc., priority 2022, dated 2024)
Structures can show the parent of a compound that is named as a salt.

Assays:
[1] = Bitterness rank 1 to 10 of fasudil stock solution with bitterness masking agents; details: for Rank#: Bitterness rank 1 to 10, 10 being most bitter
[2] = Taste threshold concentration; details: first taste-tester
[3] = Tasting of fasudil formulations by subjects / panel of tasters (bitterness, palatability); details: tasted by subjects or panel, in words
[4] = agent added to 3.0 mL of 16 mg/mL fasudil stock solution (Formulation 35A)
[5] = five amounts of agent (about 51-210 mg) in about 2.1 g of 16 mg/mL fasudil stock solution

Cn1c(=O)c2c(ncn2C)n(C)c1=O [Caffeine]
Observation [1, 4]: Very bitter

NCC(=O)O [Glycine]
Rank# [1, 4]: 2
Observation [1, 4]: Less bitter
Observation [1, 5]: All were slightly bitter, tolerable, Rank
Observation ([1]; five amounts of agent (about 51-210 mg) in about 2.1 g of 16 mg/mL fasudil stock solution, listed as glycine): some bitterness lingered in the mouth after rinsing with water

CC(O)COC[C@H]1O[C@@H]2O[C@H]3[C@H](O)[C@@H](O)[C@@H](O[C@H]4[C@H](O)[C@@H](O)[C@@H](O[C@H]5[C@H](O)[C@@H](O)[C@@H](O[C@H]6[C@H](O)[C@@H](O)[C@@H](O[C@H]7[C@H](O)[C@@H](O)[C@@H](O[C@H]8[C@H](O)[C@@H](O)[C@@H](O[C@H]1[C@H](O)[C@H]2O)O[C@@H]8COCC(C)O)O[C@@H]7COCC(C)O)O[C@@H]6COCC(C)O)O[C@@H]5COCC(C)O)O[C@@H]4COCC(C)O)O[C@@H]3COCC(C)O (stereo partly drawn) [HPBCD, Hydroxypropyl betacyclodexrin]
Rank# [1, 4]: 7

CC1CCC(C(C)C)C(O)C1 (stereo not drawn) [Menthol]
Rank# [1, 4]: 7
Observation [1, 4]: Moderately bitter

[Cl-].[Na+] [NaCl, Sodium chloride]
Observation [1, 4]: Salty, less bitter

O=S(=O)(c1cccc2cnccc12)N1CCCNCC1 [fasudil, hexahydro-1-(5-isoquinolinesulfonyl)-1H-1,4-diazepine monohydrochloride hemihydrate]
Taste Perception ([2]; fasudil aqueous composition 0.05 mg/ml): Imperceptible
Taste Perception ([2]; fasudil aqueous composition 0.1 mg/ml): Mild Taste
Taste Perception ([2]; fasudil aqueous composition 0.5 mg/ml): Mild taste
Taste Perception ([2]; fasudil aqueous composition 1.0 mg/ml): Perceptible, but tolerable
Taste Perception ([2]; fasudil aqueous composition 1.5 mg/ml): Yuck
taste / palatability on tasting ([3]; listed as fasudil hydrochloride, monohydrochloride hemihydrate): highly aversive numbing and bitter taste
taste / palatability on tasting ([3]; monohydrochloride hemihydrate): very aversive, bitter taste

O=S(=O)(c1cccc2c(O)nccc12)N1CCCNCC1 [hydroxyfasudil]
taste / palatability on tasting [3]: highly aversive numbing and bitter taste

Sulfobutyl ether betacyclodextrin [SBEBCD]
Rank# [1, 4]: 3
Rank ([1]; Bitterness rank 1 to 10, five amounts of agent (about 51-210 mg) in about 2.1 g stock solution, same rank for all): 3
Observation [1, 4]: Less bitter, Astringent
Observation [1, 5]: slightly bitter
